No constants are given. Whether binding was seen depends on the method and setting. Binding seen in cells or lysates may run through a third protein. Where a sequence is shown, tags or fusion partners need not be part of it.
Target: T1, Flag-tagged UNC-3 (C. elegans) (UniProt Q93705)
T1 sequence: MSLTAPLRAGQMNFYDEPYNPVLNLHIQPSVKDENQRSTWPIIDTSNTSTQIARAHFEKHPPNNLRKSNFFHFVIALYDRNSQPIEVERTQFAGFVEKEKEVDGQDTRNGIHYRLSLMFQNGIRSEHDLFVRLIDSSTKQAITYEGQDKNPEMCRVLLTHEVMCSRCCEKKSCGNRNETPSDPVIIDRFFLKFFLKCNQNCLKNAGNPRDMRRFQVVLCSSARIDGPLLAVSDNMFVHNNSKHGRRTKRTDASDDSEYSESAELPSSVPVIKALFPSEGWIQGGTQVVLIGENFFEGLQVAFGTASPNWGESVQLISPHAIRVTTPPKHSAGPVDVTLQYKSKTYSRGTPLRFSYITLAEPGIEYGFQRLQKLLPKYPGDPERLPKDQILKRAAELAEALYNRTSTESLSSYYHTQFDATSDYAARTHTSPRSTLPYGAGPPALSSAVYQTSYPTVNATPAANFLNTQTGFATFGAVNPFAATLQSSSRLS
Assay: co-IP; HEK293 cells co-transfected with Flag-tagged UNC-3 and Myc-tagged LIN-39; 100 ug of cell lysate, immunoprecipitation of Flag-UNC-3 with anti-Flag antibody coated beads, western blot with anti-Myc and anti-Flag

Chains of the proteins cited; added tags and fusions are not shown.
UniProt P34684: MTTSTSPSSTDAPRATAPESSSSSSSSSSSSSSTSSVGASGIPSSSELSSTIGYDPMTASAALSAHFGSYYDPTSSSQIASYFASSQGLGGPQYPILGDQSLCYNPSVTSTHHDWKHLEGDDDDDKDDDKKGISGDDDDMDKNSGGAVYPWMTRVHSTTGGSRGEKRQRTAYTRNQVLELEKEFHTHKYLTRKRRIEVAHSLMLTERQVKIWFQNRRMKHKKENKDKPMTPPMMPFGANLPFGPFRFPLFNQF

## Myc-tagged LIN-39 (from UniProt P34684 1-253)
  binding: no binding
